In PMC11157767 (Molecular Cancer, 2024):
The source gives many values for each of these; only a part stands here.

Tested on: TFG-MET allograft tumors
Assay: RNA-sequencing, differential expression and GSEA of TFG-MET allograft tumors
Type: in vivo, mouse
Details: CAP.v.Veh
Experimental: Error bars display standard error of mean, statistical significance was determined using t-test analysis. (****;p<0.0001, ***;p<0.001, **;p<0.01, *;p<0.05). […] Each dot represents an individual replicate. Error bars display standard error of the mean.
Each dot represents one gene.

[1] = GOCC_ENDOPLASMIC_RETICULUM_TUBULAR_NETWORK
[2] = GOCC_ER_TO_GOLGI_TRANSPORT_VESICLE_MEMBRANE
[3] = GOCC_EXTRINSIC_COMPONENT_OF_MEMBRANE
[4] = GOCC_EXTRINSIC_COMPONENT_OF_ORGANELLE_MEMBRANE
[5] = GOCC_EXTRINSIC_COMPONENT_OF_PLASMA_MEMBRANE
[6] = GOCC_FICOLIN_1_RICH_GRANULE_LUMEN
[7] = GOCC_GOLGI_ASSOCIATED_VESICLE_MEMBRANE
[8] = GOCC_HIPPOCAMPAL_MOSSY_FIBER_TO_CA3_SYNAPSE
[9] = GOCC_HISTONE_DEACETYLASE_COMPLEX
[10] = GOCC_INTERMEDIATE_FILAMENT_CYTOSKELETON
[11] = GOCC_INTRINSIC_COMPONENT_OF_EXTERNAL_SIDE_OF_PLASMA_MEMBRANE
[12] = GOCC_INTRINSIC_COMPONENT_OF_GOLGI_MEMBRANE
[13] = GOCC_INTRINSIC_COMPONENT_OF_MITOCHONDRIAL_INNER_MEMBRANE
[14] = GOCC_INTRINSIC_COMPONENT_OF_MITOCHONDRIAL_OUTER_MEMBRANE
[15] = GOCC_INTRINSIC_COMPONENT_OF_ORGANELLE_MEMBRANE
[16] = GOCC_INTRINSIC_COMPONENT_OF_PEROXISOMAL_MEMBRANE
[17] = GOCC_INTRINSIC_COMPONENT_OF_POSTSYNAPTIC_DENSITY_MEMBRANE
[18] = GOCC_INTRINSIC_COMPONENT_OF_POSTSYNAPTIC_SPECIALIZATION_MEMBRANE
[19] = GOCC_INTRINSIC_COMPONENT_OF_PRESYNAPTIC_MEMBRANE
[20] = GOCC_LUMENAL_SIDE_OF_ENDOPLASMIC_RETICULUM_MEMBRANE
[21] = GOCC_MITOCHONDRIAL_LARGE_RIBOSOMAL_SUBUNIT
[22] = GOCC_MITOCHONDRIAL_SMALL_RIBOSOMAL_SUBUNIT
[23] = GOCC_NEURON_PROJECTION_CYTOPLASM
[24] = GOCC_NEURON_PROJECTION_MEMBRANE
[25] = GOCC_NEUROTRANSMITTER_RECEPTOR_COMPLEX
[26] = GOCC_NUCLEAR_UBIQUITIN_LIGASE_COMPLEX
[27] = GOCC_ORGANELLE_MEMBRANE_CONTACT_SITE
[28] = GOCC_OUTER_MITOCHONDRIAL_MEMBRANE_PROTEIN_COMPLEX
[29] = GOCC_PERICENTRIC_HETEROCHROMATIN

In the case of `CNC(=O)c1ccc(-c2cnc3ncc(Cc4ccc5ncccc5c4)n3n2)cc1F` [Capmatinib], the NES (GOCC_ENDOPLASMIC_RETICULUM_QUALITY_CONTROL_COMPARTMENT) was 1.008, the ES [1] was 0.3331 and the NES [1] was 1.16. The ES [2] was -0.2748, the NES [2] was -1.032 and the ES (GOCC_ESCRT_COMPLEX) was 0.3674. It also gave an NES (GOCC_ESCRT_COMPLEX) of 1.329, an ES (GOCC_EXCITATORY_SYNAPSE) of 0.242 and an NES (GOCC_EXCITATORY_SYNAPSE) of 1.023. For the same compound, the ES (GOCC_EXOCYST) was 0.2995, the NES (GOCC_EXOCYST) was 0.9932 and the ES [3] was -0.2076. For the same compound, the NES [3] was -0.9536, the ES [4] was 0.22 and the NES [4] was 0.9521. It also gave an ES [5] of -0.2067, an NES [5] of -0.8998 and an ES [6] of 0.1986. For the same compound, the NES [6] was 1.018, the ES (GOCC_FILOPODIUM) was -0.2802 and the NES (GOCC_FILOPODIUM) was -1.142. It also gave an ES (GOCC_FILOPODIUM_TIP) of -0.3369, an NES (GOCC_FILOPODIUM_TIP) of -0.9394 and an ES (GOCC_FLEMMING_BODY) of 0.186. The NES (GOCC_FLEMMING_BODY) was 0.7169, the ES (GOCC_GABA_ERGIC_SYNAPSE) was -0.2414 and the NES (GOCC_GABA_ERGIC_SYNAPSE) was -0.9108. It also gave an ES (GOCC_GABA_RECEPTOR_COMPLEX) of -0.2499, an NES (GOCC_GABA_RECEPTOR_COMPLEX) of -0.6969 and an ES (GOCC_GAMMA_TUBULIN_COMPLEX) of -0.4445. The NES (GOCC_GAMMA_TUBULIN_COMPLEX) was -1.309, the ES (GOCC_GAP_JUNCTION) was 0.2412 and the NES (GOCC_GAP_JUNCTION) was 0.8154. For the same compound, the ES (GOCC_GLIAL_CELL_PROJECTION) was -0.3063, the NES (GOCC_GLIAL_CELL_PROJECTION) was -0.9976 and the ES (GOCC_GOLGI_ASSOCIATED_VESICLE) was -0.2261. It also gave an NES (GOCC_GOLGI_ASSOCIATED_VESICLE) of -0.8988, an ES [7] of -0.2553 and an NES [7] of -0.9152. It also gave an ES (GOCC_GOLGI_CISTERNA_MEMBRANE) of -0.2134, an NES (GOCC_GOLGI_CISTERNA_MEMBRANE) of -0.8134 and an ES (GOCC_GOLGI_LUMEN) of -0.2399. The NES (GOCC_GOLGI_LUMEN) was -0.9201, the ES (GOCC_GTPASE_COMPLEX) was 0.273 and the NES (GOCC_GTPASE_COMPLEX) was 1.059. The ES [8] was 0.3101, the NES [8] was 1.194 and the ES [9] was -0.334. For the same compound, the NES [9] was -1.306, the ES (GOCC_INCLUSION_BODY) was -0.3051 and the NES (GOCC_INCLUSION_BODY) was -1.177. The ES (GOCC_INO80_TYPE_COMPLEX) was -0.437, the NES (GOCC_INO80_TYPE_COMPLEX) was -1.3785 and the ES (GOCC_INTERCALATED_DISC) was 0.1889. For the same compound, the NES (GOCC_INTERCALATED_DISC) was 0.7989, the ES (GOCC_INTERCELLULAR_BRIDGE) was -0.2897 and the NES (GOCC_INTERCELLULAR_BRIDGE) was -1.115. It also gave an ES [10] of -0.2678, an NES [10] of -1.105 and an ES [11] of 0.2304. For the same compound, the NES [11] was 0.7871, the ES [12] was -0.1946 and the NES [12] was -0.7334. It also gave an ES [13] of -0.2479, an NES [13] of -0.8967 and an ES [14] of -0.2385. For the same compound, the NES [14] was -0.7165, the ES [15] was 0.1635 and the NES [15] was 0.9668. For the same compound, the ES [16] was 0.4051, the NES [16] was 1.273 and the ES [17] was 0.1796. For the same compound, the NES [17] was 0.7979, the ES [18] was 0.187 and the NES [18] was 0.8651. For the same compound, the ES [19] was 0.2218, the NES [19] was 1.013 and the ES (GOCC_I_BAND) was -0.224. It also gave an NES (GOCC_I_BAND) of -0.9319, an ES (GOCC_KINESIN_COMPLEX) of -0.2872 and an NES (GOCC_KINESIN_COMPLEX) of -1.039. For the same compound, the ES (GOCC_LAMELLIPODIUM) was -0.2624, the NES (GOCC_LAMELLIPODIUM) was -1.1621 and the ES (GOCC_LAMELLIPODIUM_MEMBRANE) was -0.4293. For the same compound, the NES (GOCC_LAMELLIPODIUM_MEMBRANE) was -1.29, the ES (GOCC_LATERAL_PLASMA_MEMBRANE) was -0.3223 and the NES (GOCC_LATERAL_PLASMA_MEMBRANE) was -1.2046. For the same compound, the ES (GOCC_LEADING_EDGE_MEMBRANE) was -0.2256, the NES (GOCC_LEADING_EDGE_MEMBRANE) was -0.9818 and the ES (GOCC_LIPID_DROPLET) was 0.2172. It also gave an NES (GOCC_LIPID_DROPLET) of 1.054, an ES [20] of 0.2101 and an NES [20] of 0.7862. For the same compound, the ES (GOCC_LUMENAL_SIDE_OF_MEMBRANE) was 0.2702, the NES (GOCC_LUMENAL_SIDE_OF_MEMBRANE) was 1.041 and the ES (GOCC_MEDIATOR_COMPLEX) was -0.3883. It also gave an NES (GOCC_MEDIATOR_COMPLEX) of -1.323, an ES (GOCC_MEMBRANE_COAT) of 0.2275 and an NES (GOCC_MEMBRANE_COAT) of 1.1094. It also gave an ES (GOCC_MICROBODY_MEMBRANE) of 0.2504, an NES (GOCC_MICROBODY_MEMBRANE) of 1.144 and an ES (GOCC_MICROTUBULE) of -0.1933. For the same compound, the NES (GOCC_MICROTUBULE) was -0.9075, the ES (GOCC_MICROTUBULE_PLUS_END) was -0.3584 and the NES (GOCC_MICROTUBULE_PLUS_END) was -1.083. For the same compound, the ES (GOCC_MICROVILLUS) was -0.2262, the NES (GOCC_MICROVILLUS) was -0.8861 and the ES (GOCC_MICROVILLUS_MEMBRANE) was -0.3083. For the same compound, the NES (GOCC_MICROVILLUS_MEMBRANE) was -0.9243, the ES (GOCC_MIDBODY) was -0.2664 and the NES (GOCC_MIDBODY) was -1.167. The ES [21] was -0.2033, the NES [21] was -0.7591 and the ES (GOCC_MITOCHONDRIAL_MATRIX) was -0.2353. For the same compound, the NES (GOCC_MITOCHONDRIAL_MATRIX) was -1.112, the ES [22] was -0.3811 and the NES [22] was -1.234. The ES (GOCC_MYELIN_SHEATH) was 0.2061, the NES (GOCC_MYELIN_SHEATH) was 0.8615 and the ES (GOCC_MYOSIN_COMPLEX) was 0.2344. The NES (GOCC_MYOSIN_COMPLEX) was 1.047, the ES (GOCC_MYOSIN_FILAMENT) was 0.235 and the NES (GOCC_MYOSIN_FILAMENT) was 0.8028. It also gave an ES (GOCC_MYOSIN_II_COMPLEX) of 0.3839, an NES (GOCC_MYOSIN_II_COMPLEX) of 1.206 and an ES (GOCC_M_BAND) of 0.3844. The NES (GOCC_M_BAND) was 1.299, the ES (GOCC_NBAF_COMPLEX) was -0.3185 and the NES (GOCC_NBAF_COMPLEX) was -0.869. It also gave an ES (GOCC_NEUROMUSCULAR_JUNCTION) of 0.2157, an NES (GOCC_NEUROMUSCULAR_JUNCTION) of 1.0027 and an ES [23] of 0.2032. For the same compound, the NES [23] was 0.9881, the ES [24] was 0.1863 and the NES [24] was 0.8353. The ES (GOCC_NEURON_SPINE) was 0.1636, the NES (GOCC_NEURON_SPINE) was 0.8854 and the ES [25] was -0.2547. The NES [25] was -0.9227, the ES [26] was -0.3651 and the NES [26] was -1.271. For the same compound, the ES (GOCC_ORGANELLAR_RIBOSOME) was -0.2237, the NES (GOCC_ORGANELLAR_RIBOSOME) was -0.8894 and the ES (GOCC_ORGANELLE_ENVELOPE_LUMEN) was -0.2651. For the same compound, the NES (GOCC_ORGANELLE_ENVELOPE_LUMEN) was -1.06, the ES (GOCC_ORGANELLE_INNER_MEMBRANE) was 0.1789 and the NES (GOCC_ORGANELLE_INNER_MEMBRANE) was 1.091. The ES [27] was 0.2208, the NES [27] was 0.8819 and the ES (GOCC_OUTER_MEMBRANE) was -0.2332. For the same compound, the NES (GOCC_OUTER_MEMBRANE) was -1.036, the ES [28] was -0.4368 and the NES [28] was -1.286. For the same compound, the ES (GOCC_PEPTIDASE_COMPLEX) was -0.195, the NES (GOCC_PEPTIDASE_COMPLEX) was -0.7757 and the ES [29] was -0.4697. For the same compound, the NES [29] was -1.383, the ES (GOCC_PERIKARYON) was 0.1957 and the NES (GOCC_PERIKARYON) was 1.046. The ES (GOCC_PERINUCLEAR_ENDOPLASMIC_RETICULUM) was -0.2559.
